Results from PubChem BioAssay AID2551 (National Center for Advancing Translational Sciences (NCATS), 2010).
In all, about 310,000 compounds went through this assay and about 17,000 (5.5%) were called active. Inconclusive means that the source gave no clear call. Such entries were picked first, then a sample of the others. Calls come from the whole dose curve; as a rule, active = well fitted inhibition curve with a large enough effect; inconclusive = small, poorly fitted or top-dose-only effect, or effect the other way; inactive = no such curve, though single readings can be large or run the other way. Potencies of inconclusive entries are doubtful fits and often do not repeat.
Note: nearly all actives have a fitted effect of over 60% in size.
Potency is the fitted concentration of half-maximal effect.

Protein sequences, listed by entry. Tags and fused reporters are not part of them. Lines headed by an entry give the natural chain unless they say otherwise; changes in a name come on top.
UniProt P51450: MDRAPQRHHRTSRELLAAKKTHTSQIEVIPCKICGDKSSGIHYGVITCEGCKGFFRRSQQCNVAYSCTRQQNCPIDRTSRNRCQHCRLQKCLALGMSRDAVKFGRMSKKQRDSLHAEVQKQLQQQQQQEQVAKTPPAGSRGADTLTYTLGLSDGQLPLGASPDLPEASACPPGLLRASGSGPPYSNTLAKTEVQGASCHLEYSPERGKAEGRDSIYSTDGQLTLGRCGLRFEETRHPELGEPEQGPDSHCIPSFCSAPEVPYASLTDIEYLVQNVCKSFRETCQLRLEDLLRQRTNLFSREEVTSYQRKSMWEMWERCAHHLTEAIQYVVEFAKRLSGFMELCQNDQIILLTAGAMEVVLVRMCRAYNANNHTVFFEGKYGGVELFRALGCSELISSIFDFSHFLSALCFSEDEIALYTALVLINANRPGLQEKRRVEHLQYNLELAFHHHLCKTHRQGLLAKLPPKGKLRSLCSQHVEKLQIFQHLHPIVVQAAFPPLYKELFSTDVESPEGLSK

The compounds below were run against Nuclear receptor ROR-gamma (Mus musculus) (UniProt P51450) (assay: qHTS for inhibitors of ROR gamma transcriptional activity). Conditions: Drosophila S2 Gal4-RORgamma UAS-luciferase reporter, 20 h; series mostly up to 53.6 µM.
Outline: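 In this cell-based reporter format, copper sulfate (700 uM final) drives Gal4–ROR gamma fusion expression from a metallothionein promoter in Drosophila Schneider cells; compounds preincubated 1 hr, reporter read after 20 hr at ambient temperature.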
In the case of CCOC(=O)c1cnc(Nc2nc3ccccc3o2)nc1CSC(=S)N1CCCCC1, the Potency is reported as active: 0.447 µM. CSc1cccc(NC(=O)NCc2cccc(CNC(=O)Nc3cccc(SC)c3)c2)c1 was tested, and the Potency was inconclusive: 3.16 µM [inhibitor, single point]. CCCc1cc(=O)oc2cc(OCC(=O)NCC(O)c3ccccc3)ccc12 (centres undefined) was tested, and the Potency was “inactive”. For CC(C)c1c(C(=O)N/N=C/c2cccc(OCc3ccc(F)cc3)c2)nnn1-c1nonc1N, the Potency was inconclusive: 11.2 µM [activator, partial curve]. In the case of Cc1nc(-c2cccc(Cl)c2)n[nH]1, the Potency is reported as inconclusive: 8.91 µM [activator, partial curve]. With c1ccc(-c2noc(CCC3CCCC3)n2)cc1 the Potency was inconclusive: 22.4 µM [activator, single point]. With Cc1cccc(OCC(=O)NC(=S)Nc2ccccc2N2CCOCC2)c1 the Potency was active: 11.2 µM. CN(C)CCNc1oc(COc2ccc(-c3ccccc3)cc2)nc1C#N was tested, and the Potency was inconclusive: 35.5 µM [inhibitor, single point]. In the case of CC1CC(=S)Nc2ccccc2N1Cc1ccccc1 (centres undefined), the Potency is reported as active: 1.41 µM. With C(=N\Nc1nc(-c2ccccc2)cs1)/c1ccco1 the Potency was inconclusive: 0.0794 µM [inhibitor, full curve, poor fit]. For CSc1ncnc2sc(C)c(C)c12, the Potency was inconclusive: 28.2 µM [inhibitor, single point]. CCOc1cccc(OCCCOc2cccc3cccnc23)c1 was tested, and the Potency was inconclusive: 20 µM [inhibitor, single point]. CN1CCC(C2(O)c3ccccc3CCc3ccccc32)CC1 was tested, and the Potency was inconclusive: 0.355 µM [activator, single point]. O=S(=O)(Nc1ccc(O)c(Sc2nc3ccccc3s2)c1)c1cccc2ccccc12 was tested, and the Potency was inconclusive: 35.5 µM [inhibitor, single point]. Cc1ccc(S(=O)(=O)N(C)Cc2ccc(-c3nnco3)cc2)cc1 was tested, and the Potency was inconclusive: 3.55 µM [activator, full curve, poor fit]. With COc1ccc2cc(C(=O)C3CCCN(Cc4cnc(C)s4)C3)ccc2c1 (centres undefined) the Potency was inconclusive: 20 µM [activator, single point]. With COc1ccc(-n2c(COc3ccc(C)cc3)n[nH]c2=S)cc1 the Potency was active: 5.62 µM. In the case of CCOC(=O)N1CCN(/C=C(\C#N)c2nc3ccccc3s2)CC1, the Potency is reported as inconclusive: 0.355 µM [activator, full curve, poor fit]. For COc1ccc(C(=O)NC2=NCCS2)c(OC)c1, the Potency was active: 11.2 µM. With Cc1nc2ccc(NC(=S)NCc3ccccc3)cc2nc1C the Potency was inconclusive: 35.5 µM [inhibitor, single point]. In the case of CCOc1ccc(NC(=O)C2CCN(C(=O)C3CC(=O)N(c4ccc(C)cc4)C3)CC2)cc1 (centres undefined), the Potency is reported as inconclusive: 5.62 µM [activator, single point]. In the case of Cn1c(=O)c(C(=O)COC(=O)c2cc(C(F)(F)F)nc3ccccc23)c(N)n(Cc2ccccc2)c1=O, the Potency is reported as inconclusive: 14.1 µM [activator, partial curve, poor fit]. With CCN(CC)S(=O)(=O)c1cccc(C(=O)NC2CCCCC2)c1 the Potency was inconclusive: 14.1 µM [activator, partial curve, poor fit]. CCCC(c1nnnn1Cc1ccc(OC)cc1)N1CCN(c2ccccc2OC)CC1 (centres undefined) was tested, and the Potency was inconclusive: 12.6 µM [activator, partial curve]. For CC(=O)N1c2ccc(C)cc2C(c2ccccc2)CC1C (centres undefined), the Potency was inconclusive: 25.1 µM [inhibitor, single point]. In the case of Cc1ccc(Cl)cc1NC(=S)Nn1cnnc1, the Potency is reported as active: 12.6 µM. For Cc1cccc(NCc2nc3ccccc3n2Cc2ccccc2)c1, the Potency was active: 1 µM. In the case of O=C(/C=C/c1ccccc1Cl)c1cccnc1, the Potency is reported as inconclusive: 22.4 µM [inhibitor, single point]. In the case of CC(C)CSc1ccc(S(=O)(=O)NCC(=O)O)cc1[N+](=O)[O-], the Potency is reported as “inactive”. In the case of O=C1CN(C(=O)COc2ccc(Br)cc2F)c2ccccc2N1, the Potency is reported as inconclusive: 14.1 µM [activator, single point]. With Cc1ccccc1C(=O)N/N=C/c1ccsc1C the Potency was “inactive”. In the case of O=C(/C=C/c1ccco1)Nc1nnc(-c2ccco2)s1, the Potency is reported as inconclusive: 12.6 µM [activator, partial curve]. For CCOc1ccc2nc(SC3CC(=O)N(c4ccc(OC)cc4OC)C3=O)sc2c1 (centres undefined), the Potency was active: 7.08 µM. With Cc1ccc(CNC(=O)[C@H]2C[C@@H]2[C@H](NP(=O)(c2ccccc2)c2ccccc2)c2ccccc2)o1 the Potency was inconclusive: 35.5 µM [activator, single point]. COc1ccc(C(=O)c2ccc(N3CCOCC3)c([N+](=O)[O-])c2)cc1 was tested, and the Potency was “inactive”. CCN(CC)S(=O)(=O)c1cccc(C(=O)N/N=C/c2ccccc2OCC(=O)O)c1 was tested, and the Potency was “inactive”. O=C(Nc1ccc(O)cc1)c1ccc(NC(=O)c2cccs2)cc1 was tested, and the Potency was inconclusive: 12.6 µM [activator, single point]. In the case of O=C(NC1CC1)c1ccc(CN(c2ccccc2)S(=O)(=O)c2ccccc2)cc1, the Potency is reported as inconclusive: 35.5 µM [activator, single point]. For Cc1ccc(-n2nc(C)c3c(C)cc(=O)[nH]c32)cc1, the Potency was inconclusive: 11.2 µM [activator, partial curve]. In the case of NNC(=O)COc1cccc2cccnc12, the Potency is reported as inconclusive: 14.1 µM [activator, single point]. For Cc1cc(C)cc(NC(=O)C2CCCN2S(=O)(=O)c2ccc3c(c2)C(C)(C)C(=O)N3C)c1 (centres undefined), the Potency was inconclusive: 15.8 µM [inhibitor, single point]. In the case of Cc1ccc(C(=O)c2nocc2C(=O)c2cccs2)cc1, the Potency is reported as inconclusive: 5.62 µM [inhibitor, single point]. In the case of COc1cccc(NC(=O)CCCn2c(=S)[nH]c3ccccc3c2=O)c1, the Potency is reported as inconclusive: 28.2 µM [inhibitor, single point]. With Clc1ccc(C2=NNC(=NCc3ccc4c(c3)OCO4)SC2)cc1 the Potency was inconclusive: 0.02 µM [inhibitor, partial curve, poor fit].
